PubChem BioAssay AID1259308, NCATS, 2017
In all, the deposit lists about 59,000 reagents; this is a random part of them. In the full data, about 1,510 (2.6%) got an active call. 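Calls use total luciferase alone and ignore viability, so some active siRNAs may act by altering cell number.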 A number with no mark means an inactive call. The numbers tell different reagents against one gene apart. Further read-outs or replicates are left out here.

Assay: 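Knock-downs that increase output of a recombinant reporter protein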 (primary screen)
System: human HEK293 embryonic kidney cells stably expressing firefly luciferase (HEK-CMV-Luc2-Hygro)
Reagent: single siRNA against human genes, 0.8 pmol siRNA per well
Time to read-out: 72 h
Measurement: 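Reporter luminescence and viable-cell signal on separate replicate plates, given as percent of non-targeting control and median/MAD z-scores, plus per-cell luciferase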
Direction: total luciferase, z-score and total luciferase, % of control: higher = more reporter protein produced
Hit rule: 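Active when the median/MAD z-score for overall luciferase is greater than 3; a gene was taken forward for validation with new siRNAs if at least two of its three siRNAs passed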
Calls: active = raised luciferase; inactive = no rise

gene symbol,reagent no.,"total luciferase, z-score","total luciferase, % of control"
GTF2I (GeneID 2969),1,-0.628,69.4
GTF2I (GeneID 2969),2,0.21,86.1
GTF2I (GeneID 2969),3,2.15,125
GTF2I (GeneID 2969),4,1.71,116
GTF2I (GeneID 2969),5,0.53,92.4
GTF2I (GeneID 2969),6,1.06,103
TMEM167A (GeneID 153339),1,-1.15,59
TMEM167A (GeneID 153339),2,3 (active),142
TMEM167A (GeneID 153339),3,0.902,99.8
ANP32D (GeneID 23519),1,-0.571,70.5
ANP32D (GeneID 23519),2,-0.897,64
ANP32D (GeneID 23519),3,0.682,95.5
DMXL2 (GeneID 23312),1,-0.525,71.4
DMXL2 (GeneID 23312),2,1.08,103
DMXL2 (GeneID 23312),3,0.659,95
RMDN1 (GeneID 51115),1,-0.00206,81.8
RMDN1 (GeneID 51115),2,1.03,102
RMDN1 (GeneID 51115),3,-0.532,71.3
PPA2 (GeneID 27068),1,2.13,124
PPA2 (GeneID 27068),2,0.98,101
PPA2 (GeneID 27068),3,-0.0861,80.2
FRZB (GeneID 2487),1,3.6 (active),153
FRZB (GeneID 2487),2,-0.201,77.9
FRZB (GeneID 2487),3,3.24 (active),146
PWP1 (GeneID 11137),1,-0.804,65.9
PWP1 (GeneID 11137),2,0.214,86.1
PWP1 (GeneID 11137),3,0.149,84.9
DMRT3 (GeneID 58524),1,0.381,89.5
DMRT3 (GeneID 58524),2,0.0291,82.5
DMRT3 (GeneID 58524),3,-2.33,35.6
NTRK2 (GeneID 4915),1,-0.391,74.1
NTRK2 (GeneID 4915),2,-1.3,56
NTRK2 (GeneID 4915),3,-0.456,72.8
CHCHD7 (GeneID 79145),1,-1.05,61
CHCHD7 (GeneID 79145),2,0.361,89.1
CHCHD7 (GeneID 79145),3,-0.437,73.2
SLC30A10 (GeneID 55532),1,3.16 (active),145
SLC30A10 (GeneID 55532),2,0.824,98.3
SLC30A10 (GeneID 55532),3,1.94,120
EDN2 (GeneID 1907),1,0.0611,83.1
EDN2 (GeneID 1907),2,-0.613,69.7
EDN2 (GeneID 1907),3,-0.605,69.8
MACIR (GeneID 90355),1,-0.0871,80.2
MACIR (GeneID 90355),2,0.195,85.8
MACIR (GeneID 90355),3,0.802,97.8
NEUROD6 (GeneID 63974),1,0.829,98.4
NEUROD6 (GeneID 63974),2,-0.506,71.8
NEUROD6 (GeneID 63974),3,-0.549,71
ERI3 (GeneID 79033),1,0.303,87.9
ERI3 (GeneID 79033),2,0.1,83.9
ERI3 (GeneID 79033),3,2.05,123
MAPK12 (GeneID 6300),1,-0.0995,79.9
MAPK12 (GeneID 6300),2,-0.0993,79.9
MAPK12 (GeneID 6300),3,-0.434,73.3
CLPP (GeneID 8192),1,2.13,124
CLPP (GeneID 8192),2,0.68,95.4
CLPP (GeneID 8192),3,4.37 (active),169
